Results published in PubChem BioAssay AID504444 (National Center for Advancing Translational Sciences (NCATS), 2011).
Values joined by “and” are separate entries in the source; they are usually repeats but may differ in a detail not shown here. Equal values may be shown once. Hit rate of the full screen: of about 360,000 compounds, about 7,500 (2.1%) were called active. The inconclusive results got no clear call from the source; some entries with a clear call stand among them for comparison. The call rests on the fitted dose curve; in most records, active means well fitted inhibition curve with a large enough effect; inconclusive means small, poorly fitted or top-dose-only effect, or effect the other way; inactive means flat fitted curve, though single readings scatter. Potencies of inconclusive entries are doubtful fits and often do not repeat.

assay: Nrf2 qHTS screen for inhibitors; settings: A549 ARE-Fluc reporter, luciferase luminescence, 18-24 h; series mostly up to 46 µM; further: nearly all actives have a fitted effect of over 60% in size
Procedure, shortened: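 A549 ARE_Fluc cells, 5000/well, 5% FBS OPTI-MEM; compounds in dose-response, 18-24 h at 37 °C/5% CO2; CellTiter-Fluor viability read (Ex 405/Em 525), then BugLite luciferase luminescence = Nrf2 activity.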
Potency means the concentration at half of the fitted maximal effect.

Compound | Potency
N#C/C(=C(/O)COc1ccccc1)c1nc2ccccc2s1 | inconclusive: 32.6 µM [falling, single point]
CCc1nc(Nc2ccc(F)c(Cl)c2)c2c3c(sc2n1)CCCC3 | inconclusive: 20.6 µM [falling, single point]
COc1ccccc1N1CCN(C(=S)Nc2cccc(C)c2)CC1 | inconclusive: 29.1 µM [activator, single point]
O=C(Nc1cccc(C(F)(F)F)c1)c1cc(-c2ccc(Cl)cc2)on1 | inactive
N#Cc1ccsc1NC(=O)COC(=O)C1=NNC(=O)CC1 | inconclusive: 13 µM [activator, partial curve, poor fit]
CCn1cc(C(=O)N2CCc3ccccc32)c(=O)c2cc(S(=O)(=O)N3CCCCCC3)ccc21 | inconclusive: 6.51 µM [falling, partial curve, poor fit]
Cc1ccc(-c2noc(C(C)NC(=O)c3ccco3)n2)cc1 (stereo not drawn) | inconclusive: 0.103 µM [falling, full curve, poor fit]
COCc1nnc(NC(=O)C2CC(=O)N(CCc3ccc(F)cc3)C2)s1 (stereo not drawn) | inconclusive: 25.9 µM [falling, single point]
O=C(CSc1nnc2ccccn12)Nc1ncc(Cl)cc1Cl | inconclusive: 7.31 µM [activator, partial curve, poor fit]
COc1ccc(S(=O)(=O)c2c(SC)nn(CC(=O)Nc3ccc(C)c(Cl)c3)c2N)cc1 | active: 23.1 µM
Oc1ccccc1C=NN1CCCCCC1 | inconclusive: 29.1 µM [activator, single point]
COC(=O)c1ccc(CN(c2ccccn2)S(=O)(=O)c2ccccc2)cc1 | inconclusive: 16.4 µM [falling, partial curve]
COC(=O)c1[nH]c2cc(C)ccc2c1NC(=O)CN1CCN(c2ccccc2OC)CC1 | inconclusive: 20.6 µM [falling, single point]
COC(=O)C1=C(CN2CCCc3ccccc32)NC(=O)NC1c1ccc(F)cc1 (stereo not drawn) | inconclusive: 8.2 µM [falling, partial curve, poor fit]
CN(C)c1ccc(/C=C/c2ccncc2)cc1 | inactive
Cc1ccc(C(=O)Nc2nnc(S(=O)(=O)N(C)Cc3ccco3)s2)cc1 | inconclusive: 32.6 µM [falling, single point]
CCN(CC(=O)Nc1c(F)cccc1F)C(=O)CN(C)S(=O)(=O)c1ccc(F)cc1 | inactive
CCn1cc(C(=O)NCCc2ccc(OC)c(OC)c2)c(=O)c2cc(S(=O)(=O)N3CCOCC3)ccc21 | inconclusive: 7.31 µM [activator, partial curve] and inconclusive: 29.1 µM [activator, single point]
CC(C)CCCCCCNC(=S)Nc1ccc(S(=O)(=O)N2CCOCC2)cc1 | inconclusive: 20.6 µM [falling, partial curve, poor fit]
Cc1ccc(CNC(=S)Nc2ccc(NS(=O)(=O)c3ccc(C)cc3)cc2)cc1 | inconclusive: 16.4 µM [falling, partial curve, poor fit]
C=CCN(C(=O)c1oc2c(Cl)cc(C)cc2c1C)C1CCS(=O)(=O)C1 (stereo not drawn) | inconclusive: 18.4 µM [activator, single point]

Compound | Potency
CC(C(=O)Nc1ccccc1Br)N1c2cccc3cccc(c23)S1(=O)=O (stereo not drawn) | inconclusive: 20.6 µM [falling, single point]
O=S(=O)(c1cccc(NC(=S)N2CCN(c3cccc(Cl)c3)CC2)c1)C(F)F | inconclusive: 29.1 µM [falling, single point]
O=C(O)c1cccc(CN2C(=O)S/C(=C/c3cccc([N+](=O)[O-])c3)C2=O)c1 | inconclusive: 11.6 µM [falling, partial curve]
COc1cc(NC(=O)c2cccnc2)ccc1NC(=O)c1ccccc1Cl | inconclusive: 18.4 µM [falling, partial curve, poor fit]
CCN(Cc1ccncc1)Cc1cn(C)nc1-c1ccc(Oc2ccccc2)cc1 | inconclusive: 18.4 µM [falling, single point]
CC(/C=N\NC(=O)Cn1cncn1)=C/c1ccc(C(C)C)cc1 | inconclusive: 13 µM [activator, partial curve]
Cc1cc(C)c2c(=O)cc(C(=O)Nc3sc4c(c3C#N)CCCC4)oc2c1 | inconclusive: 29.1 µM [falling, single point]
O=c1[nH]cnc2nc(-c3ccccc3)c(-c3ccccc3)nc12 | inactive
CC(C)CN(CC(C)C)S(=O)(=O)N1CCC(C(=O)NCc2ccc3c(c2)OCO3)CC1 | inconclusive: 2.31 µM [falling, partial curve, poor fit]
CCOC(=O)/C(=N\Nc1ccccc1)P(=O)(c1ccccc1)c1ccccc1 | inactive
CC1=C(c2ccc(C)cc2)S(=O)(=O)N(Cc2ccc(C(=O)NCc3ccccc3)cc2)C1=O | inconclusive: 29.1 µM [falling, single point]
CCCc1ccc(S(=O)(=O)N2CCN(C(C)C(=O)NCc3ccc(OC)cc3)CC2)cc1 (stereo not drawn) | active: 16.4 µM
CCn1c(SCC(=O)Nc2ccccc2)nc2ccccc2c1=O | inconclusive: 25.9 µM [falling, single point]
CC(OC(=O)c1cc(=O)[nH]c2ccccc12)C(=O)c1ccccc1 (stereo not drawn) | inconclusive: 32.6 µM [falling, partial curve, poor fit]
COc1ccc(C2/C=C\CN(S(=O)(=O)c3ccc4ccccc4c3)CC(=O)N2Cc2ccc(F)cc2)cc1 (stereo not drawn) | inconclusive: 0.184 µM [falling, partial curve, poor fit]
Cc1ccccc1NC(=O)CN1C(=O)C2(SCC(=O)N2c2ccc(F)cc2)c2ccccc21 (stereo not drawn) | inconclusive: 0.92 µM [activator, full curve, poor fit]
O=C(Nc1cc(C(F)(F)F)ccc1Cl)c1noc2c1CCCCC2 | inactive
Cc1[nH]c2ccccc2c1C(=O)CN1C(=O)NC2(CC(C)CC(C)(C)C2)C1=O (stereo not drawn) | inconclusive: 8.2 µM [falling, partial curve, poor fit]
O=C(C(c1ccccc1)c1ccccc1)N1CC[C@@]2(O)CCCC[C@H]2C1 | inactive
Cc1ccccc1C(=O)Nc1sc(C)c(C)c1C(=O)c1ccccc1 | inconclusive: 23.1 µM [falling, partial curve, poor fit]
O=C(Nc1cccc(Cl)c1)Nc1cc(S(=O)(=O)N2CCCCC2)ccc1Cl | inconclusive: 29.1 µM [falling, single point]

Compound | Potency
Cc1occc1-c1nnc(SC(C)C(=O)Nc2ccccc2F)o1 (stereo not drawn) | inconclusive: 8.2 µM [activator, partial curve]
COc1cccc(N=Nc2ccc3cccnc3c2O)c1 | inactive
Clc1cc(Cl)c2nc(N3CCOCC3)sc2c1 | inconclusive: 13 µM [activator, partial curve]
COc1ccc2c(CNC3CCCC3)c(C(=O)O)n(Cc3ccccc3C)c2c1 | inactive
Cc1ccc(C(C(=O)NC2CCCC2)N(C(=O)Cc2cccs2)c2ccc3c(c2)OCCO3)cc1 (stereo not drawn) | inconclusive: 23.1 µM [falling, partial curve, poor fit]
O=[N+]([O-])c1cccc(-c2c(-c3ccccc3)ncc3ccc(F)cc23)c1 | inconclusive: 10.3 µM [activator, partial curve, poor fit]
CC1CCc2nc(NC(=O)c3ccc(S(=O)(=O)N4CCCc5ccccc54)cc3)sc2C1 (stereo not drawn) | active: 5.17 µM
Cc1ccc2sc(-c3ccc(NC(=O)/C=C\C(=O)O)cc3)nc2c1 | inconclusive: 7.31 µM [activator, partial curve]
O=C(N/N=C/c1ccc(OC2CSC2)cc1)c1ccc(CN2CCOCC2)cc1 | inconclusive: 32.6 µM [falling, partial curve, poor fit]
CCCCSc1c(C)c2cc3c(cc2[nH]c1=O)OCO3 | inconclusive: 5.8 µM [falling, full curve]
CC(C)Cc1nc(N2CCN(C(=O)c3ccco3)CC2)c(C#N)c2c1CCCC2 | inconclusive: 18.4 µM [falling, partial curve, poor fit]
COc1cccc(-c2csc(N3CCN(C(=S)Nc4cccc(Cl)c4)CC3)n2)c1 | active: 18.4 µM
COc1ccc(Nc2nc(-c3cccc(OC)c3O)nc3ccccc23)cc1 | inconclusive: 29.1 µM [falling, single point]
NS(=O)(=O)c1ccc(N2CCCCCC2)c([N+](=O)[O-])c1 | inconclusive: 20.6 µM [falling, single point]
CCCc1c(C(=O)N/N=C/c2cccc(OCc3ccc(F)cc3)c2)nnn1-c1nonc1N | inconclusive: 20.6 µM [falling, single point]
COc1ccccc1NC(=O)CCC(=O)OC(C)C(=O)c1ccccc1 (stereo not drawn) | inconclusive: 6.51 µM [activator, partial curve, poor fit]
O=C1CC(C(F)(F)C(F)(F)C(F)(F)C(F)F)=Nc2ccccc2N1 | inactive
O=C(Nc1ccc(Cl)c(Cl)c1)N1CC=C(c2ccccc2)CC1 | inconclusive: 18.4 µM [falling, partial curve, poor fit]
Cc1ccc(-c2nc(C#N)c(NCc3cccc4c3OCO4)o2)cc1 | inconclusive: 32.6 µM [falling, single point]
O=[N+]([O-])c1cccc(/C=N\N2CCN(Cc3ccccc3Cl)CC2)c1 | inconclusive: 16.4 µM [falling, single point]
COc1ccccc1N1CCN(C(C)C(=O)N2CC(C)OC(C)C2)CC1 (stereo not drawn) | inactive

Quoted at random: four compounds from above, in no set order.
Compound | Potency
Cc1occc1-c1nnc(SC(C)C(=O)Nc2ccccc2F)o1 (stereo not drawn) | inconclusive: 8.2 µM [activator, partial curve]
O=[N+]([O-])c1cccc(/C=N\N2CCN(Cc3ccccc3Cl)CC2)c1 | inconclusive: 16.4 µM [falling, single point]
CC1CCc2nc(NC(=O)c3ccc(S(=O)(=O)N4CCCc5ccccc54)cc3)sc2C1 (stereo not drawn) | active: 5.17 µM
Clc1cc(Cl)c2nc(N3CCOCC3)sc2c1 | inconclusive: 13 µM [activator, partial curve]
